Measured data: PubChem BioAssay AID1259308 (NCATS, 2017)
Test: 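Genes whose loss raises luciferase production in HEK293 cells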 (primary screen). System: human HEK293 embryonic kidney cells stably expressing firefly luciferase (HEK-CMV-Luc2-Hygro). Reagents: single siRNA against human genes, 0.8 pmol siRNA per well. Timing: 72 h. Measured: 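Luciferase light (ONE-Glo) measured on one replicate plate set and viability (CellTiter-Glo) on the other, scaled to a negative control siRNA, with robust z-scores and luciferase per cell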. Direction: total luciferase, z-score: higher = more reporter protein produced. Call rule: 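Active when the median/MAD z-score for overall luciferase is greater than 3; a gene was taken forward for validation with new siRNAs if at least two of its three siRNAs passed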. Meaning of the calls: active = raised luciferase; inactive = no rise.
The deposit covers about 59,000 reagents; shown is a part drawn at random. About 1,510 of them (2.6%) count as active. 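Calls use total luciferase alone and ignore viability, so some active siRNAs may act by altering cell number.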 Not all columns of the deposit are shown.

With knock-down of GABARAPL1 (GABA type A receptor associated protein like 1) [SID160736813], the record shows total luciferase, z-score -0.181; inactive. GABARAPL1 (GABA type A receptor associated protein like 1) [SID160736814] gave total luciferase, z-score 1.94; inactive. Silencing of GABARAPL1 (GABA type A receptor associated protein like 1) [SID160736815] resulted in: total luciferase, z-score 2.1; inactive. Depletion of S100A7P3 (S100 calcium binding protein A7 pseudogene 3) [SID160731731] gave: total luciferase, z-score -1.27; inactive. With knock-down of S100A7P3 (S100 calcium binding protein A7 pseudogene 3) [SID160769726], the record shows total luciferase, z-score 0.49; inactive. With knock-down of S100A7P3 (S100 calcium binding protein A7 pseudogene 3) [SID160769727], the screen gave total luciferase, z-score -2.42; inactive.

Against TBKBP1 (TBK1 binding protein 1) [SID160722998], the entry reads total luciferase, z-score -1.05; inactive. Against TBKBP1 (TBK1 binding protein 1) [SID160722999], the entry reads total luciferase, z-score 0.299; inactive. With knock-down of TBKBP1 (TBK1 binding protein 1) [SID160723001], the screen gave total luciferase, z-score -0.54; inactive. SEPSECS [SID160740026] scored total luciferase, z-score 0.535; inactive. For SEPSECS [SID160740027], the entry reads total luciferase, z-score -0.578; inactive. Silencing of SEPSECS [SID160740028] resulted in: total luciferase, z-score -0.0818; inactive.

Depletion of ATP7A (ATPase copper transporting alpha) [SID160722290] resulted in: total luciferase, z-score 0.782; inactive. ATP7A (ATPase copper transporting alpha) [SID160722301] gave total luciferase, z-score -0.0223; inactive. Silencing of ATP7A (ATPase copper transporting alpha) [SID160722311] resulted in: total luciferase, z-score 0.669; inactive. For PBXIP1 (PBX homeobox interacting protein 1) [SID160745879] the deposit lists total luciferase, z-score -0.725; inactive. For PBXIP1 (PBX homeobox interacting protein 1) [SID160745880], the entry reads total luciferase, z-score 1.76; inactive. PBXIP1 (PBX homeobox interacting protein 1) [SID160745881] showed total luciferase, z-score 3.9; active.

No new results follow: entries from further up.
TBKBP1 (TBK1 binding protein 1) [SID160722998] → total luciferase, z-score: -1.05; outcome: inactive
TBKBP1 (TBK1 binding protein 1) [SID160722999] → total luciferase, z-score: 0.299; outcome: inactive
TBKBP1 (TBK1 binding protein 1) [SID160723001] → total luciferase, z-score: -0.54; outcome: inactive
SEPSECS [SID160740026] → total luciferase, z-score: 0.535; outcome: inactive
SEPSECS [SID160740027] → total luciferase, z-score: -0.578; outcome: inactive

Continued:
For BANK1 (B cell scaffold protein with ankyrin repeats 1) [SID160742771], the values are total luciferase, z-score 5.01; active. For BANK1 (B cell scaffold protein with ankyrin repeats 1) [SID160742772], the entry reads total luciferase, z-score -0.547; inactive. BANK1 (B cell scaffold protein with ankyrin repeats 1) [SID160742773] showed total luciferase, z-score 1.7; inactive. For TMEM92 (transmembrane protein 92) [SID160732602] the deposit lists total luciferase, z-score 0.516; inactive. Depletion of TMEM92 (transmembrane protein 92) [SID160759923] resulted in: total luciferase, z-score 0.937; inactive. Knock-down of TMEM92 (transmembrane protein 92) [SID160759924] gave: total luciferase, z-score 0.198; inactive.

For FBXO25 (F-box protein 25) [SID160737853], the values are total luciferase, z-score 0.231; inactive. FBXO25 (F-box protein 25) [SID160737854] gave total luciferase, z-score 1.16; inactive. Against FBXO25 (F-box protein 25) [SID160737855], the values are total luciferase, z-score 0.223; inactive. SNTN (sentan, cilia apical structure protein) [SID160732477] showed total luciferase, z-score -0.874; inactive. With knock-down of SNTN (sentan, cilia apical structure protein) [SID160757143], the screen gave total luciferase, z-score -0.473; inactive. Knock-down of SNTN (sentan, cilia apical structure protein) [SID160757145] came out at: total luciferase, z-score 0.795; inactive.

With knock-down of SEC61G (SEC61 translocon subunit gamma) [SID160732767], the record shows total luciferase, z-score -0.845; inactive. Depletion of SEC61G (SEC61 translocon subunit gamma) [SID160736370] came out at: total luciferase, z-score -0.993; inactive. With knock-down of SEC61G (SEC61 translocon subunit gamma) [SID160736371], the record shows total luciferase, z-score 0.428; inactive.
